Data as given in PubChem BioAssay AID504804 (Drosophila RNAi Screening Center, 2011)
Test: 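Fly genes whose loss lessens doxorubicin-driven cell death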 (primary screen). System: Drosophila Kc cells. Reagents: long dsRNA against Drosophila genes, 0.5 µg dsRNA per well. Time to read-out: 96 h (48 h knock-down, then 48 h drug). Conditions: doxorubicin 5 µg/ml for 48 h, added 48 h after dsRNA. Read-out: 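Viability measured as cellular ATP by luminescence after 48 h knock-down then 48 h doxorubicin at 5 µg/ml; unnormalised plate counts for each replicate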. Reading the numbers: raw ATP luminescence: higher = more viable cells, protection from doxorubicin. Call rule: 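Active when both duplicate wells lie at least 2 SD above the plate mean and protection is confirmed by rescreening and independent dsRNAs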.
The deposit covers about 19,000 reagents; below is an unselected part of those that have a named target and a result. Over the whole deposit, 47 (0.25%) are marked active. 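Signals are raw, not normalised; exact z-scores behind calls not deposited; actives needed confirmation, so some wells reaching 2 SD are inactive.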 Entries without a mark were called inactive. No sequences are given here.

For Cpr78E [DRSC11807], how do the results read?
raw ATP luminescence, replicate 1: 69390; raw ATP luminescence, replicate 2: 84367

For CG13667 [DRSC10028], how do the results read?
raw ATP luminescence, replicate 1: 58680; raw ATP luminescence, replicate 2: 31557

Which result is listed for CG32808 [DRSC17689]?
raw ATP luminescence, replicate 1: 2.33e5; raw ATP luminescence, replicate 2: 2.18e5

For CG14260 [DRSC14755], what does the deposit list?
raw ATP luminescence, replicate 1: 55420; raw ATP luminescence, replicate 2: 54330

For CG1213 [DRSC12191], what was measured?
raw ATP luminescence, replicate 1: 58497; raw ATP luminescence, replicate 2: 58500

With CG3594 [DRSC04393], what was measured?
raw ATP luminescence, replicate 1: 56833; raw ATP luminescence, replicate 2: 38250

What is on record for CG6497 [DRSC10654]?
raw ATP luminescence, replicate 1: 37940; raw ATP luminescence, replicate 2: 30397

What did the screen give for mEFTu1 [DRSC06959]?
raw ATP luminescence, replicate 1: 68943; raw ATP luminescence, replicate 2: 53137

What is on record for ssp5 [DRSC14955]?
raw ATP luminescence, replicate 1: 69683; raw ATP luminescence, replicate 2: 37097

How did the screen score GlyRS [DRSC10711]?
raw ATP luminescence, replicate 1: 37213; raw ATP luminescence, replicate 2: 31620

How did the screen score Cyp4e1 [DRSC07370]?
raw ATP luminescence, replicate 1: 37240; raw ATP luminescence, replicate 2: 77033

With EbpIII [DRSC04638], how do the results read?
raw ATP luminescence, replicate 1: 42023; raw ATP luminescence, replicate 2: 50983

What did the screen give for CG4702 [DRSC15626]?
raw ATP luminescence, replicate 1: 95643; raw ATP luminescence, replicate 2: 35650

How did the screen score CG32369 [DRSC10042]?
raw ATP luminescence, replicate 1: 73093; raw ATP luminescence, replicate 2: 78753

Which result is listed for CG32369 [DRSC10834]?
raw ATP luminescence, replicate 1: 36817; raw ATP luminescence, replicate 2: 36383

With CG3880 [DRSC04428], what does the deposit list?
raw ATP luminescence, replicate 1: 55837; raw ATP luminescence, replicate 2: 61933

For Nepl14 [DRSC15631], what does the deposit list?
raw ATP luminescence, replicate 1: 87290; raw ATP luminescence, replicate 2: 56800

What did the screen give for CG1494 [DRSC20509]?
raw ATP luminescence, replicate 1: 3.08e5; raw ATP luminescence, replicate 2: 3.04e5

Which result is listed for CG14186 [DRSC10185]?
raw ATP luminescence, replicate 1: 20433; raw ATP luminescence, replicate 2: 19323

What is on record for CG31528 [DRSC12003]?
raw ATP luminescence, replicate 1: 70600; raw ATP luminescence, replicate 2: 65353

Which result is listed for CG14421 [DRSC17918]?
raw ATP luminescence, replicate 1: 57870; raw ATP luminescence, replicate 2: 51820

What did the screen give for CG13044 [DRSC09925]?
raw ATP luminescence, replicate 1: 35937; raw ATP luminescence, replicate 2: 27143

For CG43737 [DRSC19609], how do the results read?
raw ATP luminescence, replicate 1: 3.24e5; raw ATP luminescence, replicate 2: 2.82e5

Which result is listed for CG4766 [DRSC17736]?
raw ATP luminescence, replicate 1: 30260; raw ATP luminescence, replicate 2: 37160

What did the screen give for Xrcc2 [DRSC19984]?
raw ATP luminescence, replicate 1: 2.59e5; raw ATP luminescence, replicate 2: 2.85e5

For sens-2 [DRSC02136], what does the deposit list?
raw ATP luminescence, replicate 1: 37423; raw ATP luminescence, replicate 2: 35010

For sens-2 [DRSC02613], how do the results read?
raw ATP luminescence, replicate 1: 27443; raw ATP luminescence, replicate 2: 31157

How did the screen score rpk [DRSC12386]?
raw ATP luminescence, replicate 1: 29013; raw ATP luminescence, replicate 2: 25757

Individual results from the list:
Under “raw ATP luminescence, replicate 1”, CG13044 [DRSC09925] reads 35937
Result of CG3594 [DRSC04393] in “raw ATP luminescence, replicate 1”: 56833
